Here are results for one substance from publication PMC8986756.

Sequences of proteins named here, by UniProt entry; tags and fusion partners are left off.
UniProt Q14184: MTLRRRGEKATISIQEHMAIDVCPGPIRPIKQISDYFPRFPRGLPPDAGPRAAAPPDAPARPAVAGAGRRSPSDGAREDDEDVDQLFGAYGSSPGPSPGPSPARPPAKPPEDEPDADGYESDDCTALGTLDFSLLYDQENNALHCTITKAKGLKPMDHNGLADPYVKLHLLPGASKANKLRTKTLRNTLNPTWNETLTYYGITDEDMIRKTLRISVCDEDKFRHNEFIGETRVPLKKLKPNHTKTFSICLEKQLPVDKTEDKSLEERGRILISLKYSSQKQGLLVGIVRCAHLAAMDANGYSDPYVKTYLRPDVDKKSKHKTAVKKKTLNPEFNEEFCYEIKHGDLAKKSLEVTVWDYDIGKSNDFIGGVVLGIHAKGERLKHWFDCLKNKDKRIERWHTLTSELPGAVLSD
UniProt O95863: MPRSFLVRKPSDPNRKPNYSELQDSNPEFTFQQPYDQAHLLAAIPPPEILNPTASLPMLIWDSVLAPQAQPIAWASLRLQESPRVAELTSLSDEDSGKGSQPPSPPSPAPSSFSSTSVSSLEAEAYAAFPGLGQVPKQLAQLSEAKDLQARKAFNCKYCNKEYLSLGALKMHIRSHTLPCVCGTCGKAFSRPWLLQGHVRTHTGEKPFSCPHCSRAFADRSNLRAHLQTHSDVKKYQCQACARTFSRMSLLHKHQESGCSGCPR

No constants are given. Whether binding was seen depends on the method and setting. In cells and extracts the contact can be indirect. Some binding calls cover weakened binding; strength is not graded here.

This experiment has as its target Double C2-like domain beta (DOC2B) (human) (UniProt Q14184). Nature of the experiment: co-IP; NP40 lysate (250 μg) of DOC2B-expressing SiHa cells incubated with 1 μg anti-DOC2B antibody (rabbit IgG as control) overnight at 4 °C, protein A/G immuno-magnetic beads 6 h at 4 °C, washed with 0.01% PBST; immunoblot with anti-CDH1 and anti-SNAI1.

On to “Snail family transcriptional repressor 1 (SNAI1) (from UniProt O95863 1-264)”, for which the binding entry is “binds”.
